Reference: US7465544B2, “Synthetic cofactor analogs of S-adenosylmethionine as ligatable probes of biological methylation and methods for their use” (Wisconsin Alumni Research Foundation, priority 2006, dated 2008)

What was measured:
[1] = system: 56-modified DNA; assay: Aqueous Huisgen [2+3] cycloaddition with alkyne-modified DNA (DPAGE)
[2] = system: azide-linked DNA; assay: Staudinger ligation of triarylphosphines with cofactor analog-linked 32P-labeled oligonucleotide (DPAGE); details: 500 nM DNA, 20-fold excess of triarylphosphine, 37° C. 14 h; M.TaqI-derived products
[3] = system: Immobilized Streptavidin; assay: Immobilized streptavidin pull-down assay; type: binding; details: for retention of radiolabeled DNA on streptavidin-agarose, aryl azide adduct / retention of radiolabeled DNA on streptavidin-agarose, alkyl azide adduct 25b: M.TaqI products, scintillation counting; for retention of radiolabeled DNA on streptavidin-agarose, aryl azide adduct: relative to a DMF control devoid of phosphine; for ligation to azide-linked pUC19 via the streptavidin pull-down assay: initial efforts
[4] = system: DNA alkylated by 67; assay: Piperidine digestion of DNA alkylated by 67; details: 0.5M piperidine, 90° C., 30 min

Compound	Huisgen cycloaddition of modified DNA with azide 62 [1]	Staudinger ligation to cofactor analog-modified DNA (DNA mobility shift) [2]	retention of radiolabeled DNA on streptavidin-agarose, aryl azide adduct [3]	retention of radiolabeled DNA on streptavidin-agarose, alkyl azide adduct 25b [3]	ligation to azide-linked pUC19 via the streptavidin pull-down assay [3]	piperidine-promoted cleavage specific to reactions with both MTase and 67 [4]
5′-aziridine adenylate [compound 3, reference compound]	afforded no new radiolabeled product	no shift				
COC(=O)c1ccc(C(=O)NCCCOCCOCCOCCCNC(=O)CCCC[C@@H]2SC[C@@H]3NC(=O)N[C@@H]32)cc1P(c1ccccc1)c1ccccc1 [compound 42]		significant reduction in DNA mobility	high degree of radioisotopic retention	retention of radioactivity	failed to yield discernible ligation	
O=C(CCCC[C@@H]1SC[C@@H]2NC(=O)N[C@@H]21)NCCCCCOC(=O)c1ccccc1P(c1ccccc1)c1ccccc1 [compound 44, 2-Diphenylphosphanyl-benzoic acid 5-(biotin)-pentyl ester]		only ligated to the product derived from 25a; also recorded: remarkably efficient	high degree of radioisotopic retention	did not ligate	failed to yield discernible ligation	
C#CCN(CCI)C[C@H]1O[C@@H](n2cnc3c(N)ncnc32)[C@@H](O)C1O (stereo partly drawn) [compound 56, 5′-[(iodoethyl)propargyl)amino]-2′,3′-5′-deoxyadenosine hydrochloride]	extremely facile coupling					
Nc1ncnc2c1ncn2[C@@H]1O[C@H](CN(CCI)CC[C@H](N)C(=O)O)C(O)[C@@H]1O (stereo partly drawn) [compound 67, 5′-(diaminobutyric acid)-N-iodoethyl-5′-deoxyadenosine ammonium hydrochloride]						did not lead to significant cleavage events

“Also recorded” adds a separate entry of the source. Counter-ions that a name gives are not always drawn.
